Where “and” joins values, the source holds several entries; their conditions need not be identical. Identical values can stand only once. Out of some 230,000 compounds screened, about 310 (0.13%) were called active. Inconclusive results, whose numbers are uncertain, are shown with a selection of clear calls. The call rests on the fitted dose curve; in most records, active means well fitted activation curve with a large enough effect; inconclusive means small, poorly fitted or top-dose-only effect; inactive means no such curve, though single readings can be large or run the other way. Where the call is inconclusive, the potency comes from a doubtful curve fit.
Experiment: qHTS Multiplex Assay to Identify Dual Action Probes in a Cell Model of Huntington: Cytoprotection (ATP); further: nearly all actives have a fitted effect of over 45% in size;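 on cytoprotection (ATP increase): toxic huntingtin expression switched on by the ecdysone agonist tebufenozide; % of control where 0% means no effect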
Conditions: PC12 HTT-Q103 induced, ATP luminescence, 40 h; cytoprotection (ATP increase): at 56.4 µM (top of the series) unless noted
Method in brief: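 Compounds added alongside 100 nM tebufenozide, which induces toxic Q103 huntingtin exon 1-GFP in stable PC12 cells; surviving cells quantified by luminescent ATP measurement. Medium: phenol red-free DMEM, 5% equine and 5% calf serum.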
Potency means the concentration at half of the fitted maximal effect.

| SMILES | Potency | cytoprotection (ATP increase) |
| --- | --- | --- |
| O=C(/C(C=Nc1ccc(Br)cc1)=C(/O)c1ccco1)C(F)(F)F | inconclusive: 1.12 µM [activator, single point] |  |
| Cc1cccc(NC(=O)C2CCN(S(=O)(=O)c3cccc4nsnc34)CC2)c1 | inconclusive: 0.891 µM [activator, single point] |  |
| Cc1nn(-c2ccc(Cl)cc2)c2sc(C(=O)N3CCN(C(=O)c4ccco4)CC3)cc12 | inconclusive: 1.26 µM [activator, single point] |  |
| COC(=O)c1oc(-c2ccc(Cl)cc2)nc1C | inconclusive: 25.1 µM [activator, single point] |  |
| O=C1c2cccc3c(N4CCCCC4)ccc(c23)C(=O)N1c1cccc(O)c1 |  | inactive: -65.5% |
| COc1cccc(C2C3=C(N=c4s/c(=C\c5ccc(O)cc5)c(=O)n42)c2ccccc2CC3)c1OC (configuration not stated) | inconclusive: 3.16 µM [activator, single point] |  |
| CCCCCCC(=O)O | inconclusive: 31.6 µM [activator, single point] |  |
| Cc1ccccc1NC(=O)N1CCC(C(=O)c2ccc(F)cc2)CC1 | inconclusive: 0.631 µM [activator, partial curve] |  |
| O=C(NC(=S)Nc1ccc(N2CCCCC2)cc1)c1ccco1 | inconclusive: 5.01 µM [activator, single point] |  |
| Cc1cc2c(c(=O)o1)[C@H](O)[C@H]1O[C@@H]1C2=O | inconclusive: 5.01 µM [activator, partial curve, poor fit] |  |
| NS(=O)(=O)c1cc2c(cc1C(F)(F)F)NCNS2(=O)=O | inconclusive: 0.794 µM [activator, single point] |  |
| O=C(CSc1nnc(-c2cccs2)n1-c1ccccc1)N1CCOCC1 |  | inactive: 13.5% |
| O=C(CNC(=O)c1cccc(Cl)c1)N/N=C/C=C/c1ccccc1 | inconclusive: 0.708 µM [activator, single point] |  |
| COc1ccc(CNC(=O)c2ccc(C(C)(C)C)cc2)cc1 |  | inactive: 14.7% [at 10 µM] |
| Cc1cccc(Nc2nc(N)nc(CSC(=S)N3CCOCC3)n2)c1 | inconclusive: 2.82 µM [activator, single point] |  |
| CCOC(=O)c1nnc(-c2ccccc2)nc1Sc1ccccc1Cl | inconclusive: 35.5 µM [activator, single point] |  |
| COc1ccc(Cl)cc1C(=O)NNC(=S)NC(=O)c1cc(-c2ccccc2)nc2ccccc12 | inconclusive: 4.47 µM [activator, single point] |  |
| COc1cc(OC)c(NC(=O)C(=O)CC(=O)c2ccc(C)cc2C)cc1Cl | inconclusive: 5.62 µM [activator, single point] |  |
| COCC(=O)Nc1sc2c(c1C(=O)OC)CCC(C)C2 (configuration not stated) |  | inactive: 8.98% |
| O=C(CCCC(=O)NCc1ccc(F)cc1)NCc1ccc(F)cc1 |  | inactive: 8.69% [at 10 µM] |
| CC(=O)OC[C@@H]1O[C@H](C/C=N\O[C@@H]2O[C@H](COC(C)=O)[C@@H](OC(C)=O)[C@H](OC(C)=O)[C@H]2OC(C)=O)C=C[C@@H]1OC(C)=O | inconclusive: 0.0008 µM [activator, full curve, poor fit] |  |
| CCOC(=O)C1(Cc2cccc(F)c2)CCN(CC2CC2)CC1 |  | inactive: -0.415% [at 10 µM] |
| Cn1ncc2c(NCc3ccccc3)ncnc21 | inconclusive: 5.62 µM [activator, single point] |  |

| SMILES | Potency | cytoprotection (ATP increase) |
| --- | --- | --- |
| CC1(C)CC(=O)C2=C(C1)N(c1ccccc1C#N)C(N)=C(C#N)C2c1cccs1 (configuration not stated) |  | inactive: -7.61% |
| CC(=O)NCc1c(I)c(NC(C)=O)c(I)c(C(=O)O)c1I | inconclusive: 31.6 µM [activator, single point] |  |
| CCOC(=O)C1=C(CSc2nc(-c3ccncc3)ccc2C#N)OC(N)=C(C#N)C1c1ccc(OC)cc1 (configuration not stated) | inconclusive: 35.5 µM [activator, single point] |  |
| C=CCc1ccc(OCCCCN2CCC(C)CC2)c(OC)c1 | inconclusive: 1.26 µM [activator, single point] |  |
| Cc1ccc(C)c(NC(=O)c2sc(Cl)nc2C)c1 |  | inactive: 21.4% [at 10 µM] |
| CCN(CC)C(=O)CSC1=N/C(=C/c2ccco2)C(=O)N1c1ccc(OC)c(Cl)c1 | inconclusive: 0.316 µM [activator, partial curve] |  |
| CCOc1ccc(NC(=O)CCS(=O)(=O)c2ccc3c(c2)CCCN3C(C)=O)cc1 | inconclusive: 0.794 µM [activator, partial curve] |  |
| O=C(/C(=N/N=C/c1ccc(O)c(O)c1)c1ccccc1)c1ccccc1 | inconclusive: 0.447 µM [activator, partial curve] |  |
| CC1C(c2ccccc2)N(C)C(c2ccccc2)CC1(O)c1ccc(F)cc1 (configuration not stated) | inconclusive: 14.1 µM [activator, single point] |  |
| CC(C)(C)C1CCC(=NNc2nc3ccccc3[nH]2)CC1 (configuration not stated) | inconclusive: 5.62 µM [activator, single point] |  |
| Cc1c(NC(=O)c2cccnc2)c(=O)n(-c2ccccc2)n1C | inconclusive: 282 nM [activator, full curve, poor fit] and inconclusive: 6.3 nM [activator, full curve] |  |
| Cc1nnc(SCc2ccccc2Cl)n(N)c1=O | inconclusive: 5.62 µM [activator, single point] |  |
| O=C(/C=C/c1ccc(O)cc1)c1ccc(O)cc1O | inconclusive: 5.62 µM [activator, single point] |  |
| CCOC(=O)[C@]1(C(NC(=O)OC)c2ccco2)CCCC1=O (some centres not stated) | inconclusive: 0.708 µM [activator, single point] |  |
| CNC1=CN(O)C(c2ccccc2)=c2cc(Cl)ccc2=N1 | inconclusive: 0.0141 µM [activator, full curve, poor fit] |  |
| COc1ccc(NS(=O)(=O)c2ccc(OC)c3ccccc23)cn1 |  | inactive: -23.3% |
| COc1cccc(C(O)c2nc3ccccc3n2C(C)C)c1 (configuration not stated) | inconclusive: 5.62 µM [activator, single point] |  |
| CCCC(C)CO (configuration not stated) |  | inactive: -0.385% |
| CC(C)(C)n1ncc2c(=O)n(Cc3ccc(Cl)c(Cl)c3)cnc21 | inconclusive: 2.24 µM [activator, partial curve] |  |
| CCC(OC(=O)c1cc2sccc2n1C)C(=O)NCC1CCCO1 (configuration not stated) |  | inactive: -8.94% [at 10 µM] |
| O=C(Nc1ccc(O)c2c(=O)cc(-c3ccccc3Cl)oc12)c1ccc(Br)cc1 | inconclusive: 7.94 µM [activator, partial curve, poor fit] |  |
| Cc1cccc(N/C=C(\[N+](=O)[O-])S(=O)(=O)c2ccccc2)c1 | inconclusive: 0.794 µM [activator, partial curve] |  |
| CCS(=O)(=O)c1nnnn1-c1ccccc1S(C)(=O)=O | active: 12.6 µM |  |

| SMILES | Potency | cytoprotection (ATP increase) |
| --- | --- | --- |
| CCc1ccc(/C=C2\SC(=S)N(CCC(=O)N3CCN(C)CC3)C2=O)cc1 | active: 17.8 µM |  |
| CC(C)c1cc(NCC2CCCO2)n2c(nc3ccccc32)c1C#N (configuration not stated) |  | inactive: -9.32% |
| Cc1ccc(C)c(S(=O)(=O)N/N=C2/CCCc3ccccc32)c1 | inconclusive: 3.98 µM [activator, full curve] |  |
| O=C(CCl)N1c2ccccc2OCC1c1ccccc1 (configuration not stated) |  | inactive: -6% [at 10 µM] |
| O/N=C1\CC/C(=N\O)c2nn(-c3ccc(Cl)cc3Cl)nc21 | inconclusive: 0.631 µM [activator, single point] |  |
| COC(=O)Cc1[nH]n(-c2ccccc2)c(=O)c1C(C)=Nc1ccccc1 | inconclusive: 0.251 µM [activator, full curve] |  |
| COc1cc(-c2nc3c(c(C)nn3-c3ccccc3)c3cc(OC)c(OC)cc23)ccc1O |  | inactive: -17.1% |
| CCOc1cccc2cc(C(=O)NCCC3=CCCCC3)c(=O)oc12 |  | inactive: 2.27% |
| O=C(COC(=O)C1CCN(S(=O)(=O)c2cccs2)CC1)c1ccc2c(c1)OCCO2 |  | inactive: -27.5% |
| O=C(C1CCC(CNS(=O)(=O)c2cccc3cccnc23)CC1)N1CCCC1 (configuration not stated) |  | inactive: -5.18% |
| CCOC(=O)Cc1csc(SCC(=O)Nc2sc3c(c2C(N)=O)CCC3)n1 |  | inactive: -24.4% [at 10 µM] |
| CCC/C=C(\CCC)C(NS(=O)(=O)c1cccs1)c1ccc(C(=O)OC)cc1 (configuration not stated) | inconclusive: 39.8 µM [activator, single point] |  |
| Cc1ccc(Cn2nnnc2CN2CCC(NC(=O)C(C)(C)C)CC2)cc1 | inconclusive: 1.26 µM [activator, single point] |  |
| O=C(O)c1cncc(C(=O)O)c1 |  | inactive: -1.61% [at 10 µM] |
| O=C(Nc1ccc2nc(-c3ccccn3)c(-c3ccccn3)nc2c1)N1CCOCC1 | inconclusive: 0.562 µM [activator, partial curve, poor fit] |  |
| COC(=O)c1c(NC(=O)CN2CCC3(O)CCCCC3C2c2ccc(F)cc2)sc(C)c1C (configuration not stated) |  | inactive: 15.8% [at 10 µM] |
| COc1ccc(Cl)cc1N=Nc1ncc[nH]1 | inconclusive: 39.8 µM [activator, partial curve, poor fit] and inconclusive: 35.5 µM [activator, single point] |  |
| O=C(CCCN1CCN(c2ccccn2)CC1)c1ccc(F)cc1 | inconclusive: 2 µM [activator, partial curve] |  |
| COc1ccc(C(=O)Oc2cc(OC)cc(OC)c2C(C)=O)cc1 | inconclusive: 0.251 µM [activator, full curve, poor fit] |  |
| O=c1[nH][nH]cc1C=Nc1cc(Cl)ccc1O | active: 14.1 µM |  |
| COC(=O)N[C@@H](/C=C/c1ccccc1)[C@@H](C)[N+](=O)[O-] | inconclusive: 5.62 µM [activator, single point] |  |

— PubChem BioAssay AID1471 (National Center for Advancing Translational Sciences (NCATS), 2008)
